# PubChem BioAssay AID743121 – NCATS | 2013
# Screen: 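Genes whose silencing strengthens cell killing by camptothecin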 (primary screen)
# System: MDA-MB-231 cells, a human breast cancer line
# Reagents: single siRNA against human genes, 20 nM siRNA (0.8 pmol per well)
# Time to read-out: 120 h (drug added 48 h after transfection, read 72 h later)
# Challenge: camptothecin 20 nM (about EC30) for 72 h; vehicle 0.1% DMSO in parallel plates
# Read-out: 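Cell viability by ATP luminescence (CellTiter-Glo) as % of non-targeting siRNA wells, and the log2 ratio of viability without drug over viability with camptothecin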
# Scale: log2 vehicle/camptothecin viability: higher = stronger sensitisation to camptothecin
# Active means: 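Active genes have an RSA gene-level p-value below 0.001, computed from the ratios of their separate siRNAs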
# In all, the deposit lists about 26,000 reagents; shown is a random part of them. Over the whole deposit, 167 (0.63%) are marked active. 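Calls are per gene from RSA p-values that are not deposited; an individual active-marked siRNA can sensitise only weakly.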 Reagents against one gene are numbered here. Not all columns of the deposit are shown.
Target gene,reagent,log2 vehicle/camptothecin viability,outcome
KCNQ5,1,-0.212,inactive
KCNQ5,2,-0.025,inactive
KCNQ5,3,-0.0607,inactive
KCNQ5,4,0.0136,inactive
TBR1,1,0.194,inactive
TBR1,2,-0.251,inactive
TBR1,3,-0.12,inactive
TBR1,4,-0.321,inactive
REELD1,1,-0.0441,inactive
REELD1,2,-0.044,inactive
REELD1,3,0.055,inactive
REELD1,4,-0.218,inactive
TP53INP1,1,0.0863,inactive
TP53INP1,2,-0.0381,inactive
TP53INP1,3,-0.109,inactive
TP53INP1,4,-0.441,inactive
GNB3,1,0.425,inactive
GNB3,2,-0.287,inactive
GNB3,3,-0.634,inactive
GNB3,4,-1.11,inactive
KNG1,1,-0.594,inactive
KNG1,2,0.11,inactive
KNG1,3,-0.262,inactive
KNG1,4,-0.578,inactive
HSD17B3,1,-0.0296,inactive
HSD17B3,2,-0.586,inactive
HSD17B3,3,0.103,inactive
BMPR2,1,-0.344,inactive
BMPR2,2,-0.402,inactive
BMPR2,3,0.0292,inactive
BMPR2,4,-0.59,inactive
UBN2,1,-0.514,inactive
UBN2,2,-0.108,inactive
UBN2,3,-0.297,inactive
UBN2,4,0.00332,inactive
XCL1,1,-0.411,inactive
XCL1,2,-0.0462,inactive
XCL1,3,-0.0206,inactive
XCL1,4,-0.144,inactive
XCL1,5,0.135,inactive
XCL1,6,-0.424,inactive
XCL1,7,0.825,inactive
XCL1,8,-0.352,inactive
SOST,1,-0.27,inactive
SOST,2,-0.0189,inactive
SOST,3,1.11,inactive

Targets above whose target name begins with B or b:
Target gene,reagent,log2 vehicle/camptothecin viability,outcome
BMPR2,1,-0.344,inactive
BMPR2,2,-0.402,inactive
BMPR2,3,0.0292,inactive
BMPR2,4,-0.59,inactive
